# Measurements taken from patent US7763585B2, “Methods for inhibiting tumor cell proliferation” (priority 2003, dated 2010).
# Test system: hSIE oligonucleotide
# Experiment: Un-annealing/re-annealing of treated hSIE oligonucleotide, agarose gel electrophoresis
# Conditions: ethidium bromide, versus untreated control oligonucleotide, FIG. 2
structure (smiles),measurement,value
[Cl][Pt]([Cl])([Cl])[Cl] [platinum (IV) chloride],"Migration pattern and band sharpness of treated, re-annealed hSIE oligonucleotide (DNA integrity)",identical migration pattern and band sharpness
O=[N+]([O-])[Pt]1([Cl])([Cl])([Cl])[NH]CC[NH]1 [ISS CPA-1],"Migration pattern and band sharpness of treated, re-annealed hSIE oligonucleotide (DNA integrity)",identical migration pattern and band sharpness
[NH2][Pt]([NH2])([Cl])([Cl])([Cl])[N+](=O)[O-] [ISS CPA-7],"Migration pattern and band sharpness of treated, re-annealed hSIE oligonucleotide (DNA integrity)",identical migration pattern and band sharpness

# Some entries repeat one wording, which the source may state once for all of them.
